Article PMC6117453
Results are given in words; binding and its absence hold for the method and conditions named. Binding seen in cells or lysates may run through a third protein. Some binding calls cover weakened binding; strength is not graded here.

Amino acid sequences for entries named in this document (tags omitted). A change or cut given only in a name is not applied to a line headed by its entry.
UniProt P50462: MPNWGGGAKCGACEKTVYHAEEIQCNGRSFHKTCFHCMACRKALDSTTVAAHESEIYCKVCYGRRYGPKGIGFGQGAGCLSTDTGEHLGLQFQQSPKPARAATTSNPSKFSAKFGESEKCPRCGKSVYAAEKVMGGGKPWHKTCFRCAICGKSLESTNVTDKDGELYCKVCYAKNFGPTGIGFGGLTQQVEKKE
UniProt Q9JLV1: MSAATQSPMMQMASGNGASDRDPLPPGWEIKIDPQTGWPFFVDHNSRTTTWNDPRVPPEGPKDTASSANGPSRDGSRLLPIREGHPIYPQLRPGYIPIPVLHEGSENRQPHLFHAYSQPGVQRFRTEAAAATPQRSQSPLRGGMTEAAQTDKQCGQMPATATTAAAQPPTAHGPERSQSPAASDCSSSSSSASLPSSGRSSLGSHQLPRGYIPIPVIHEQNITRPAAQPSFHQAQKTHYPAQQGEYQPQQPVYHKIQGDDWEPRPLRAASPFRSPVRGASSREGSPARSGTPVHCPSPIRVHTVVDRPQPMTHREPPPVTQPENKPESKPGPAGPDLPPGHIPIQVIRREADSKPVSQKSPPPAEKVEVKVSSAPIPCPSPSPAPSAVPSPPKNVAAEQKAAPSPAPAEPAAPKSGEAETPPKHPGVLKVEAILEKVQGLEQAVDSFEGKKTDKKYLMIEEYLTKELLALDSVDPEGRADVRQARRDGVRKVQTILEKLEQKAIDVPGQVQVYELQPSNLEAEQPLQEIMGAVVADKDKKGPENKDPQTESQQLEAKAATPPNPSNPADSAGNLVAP

Molecular target: Muscle LIM Protein (MLP) C58G (mouse) (UniProt P50462)
Assay: co-IP; MLP C58G precipitated with anti-MLP 79D2 antibody from Csrp3 KI/KI heart lysate (lysate as in Fig. 6B: mice treated in vivo with MG-262); isotype antibody as control; blotted for Bag3; endogenous proteins

For “BCL-2 associated athanogene3 (Bag3) (from UniProt Q9JLV1 1-577)”, the binding was “binds”.
